Some of these results come from one statement about several compounds together.
System: B5 Clone (High Cx43) MDCK cells
Assay: Scratch wound closure (migration index), B5 Clone (High Cx43) MDCK
Format: cell-based, canine
Procedure: FIG. 7A-7L—Milk-Derived Extracellular Vesicles contain endogenous bioactive capabilities in a Scratch-Wounded model of wound healing in Cx43-variable MDCK cells. Cells are cultured to confluency, then scratched in low serum conditions (1% NCS), rinsed, and supplied fresh medium with 20 μg/mL mEV's or 20 uL Vehicle (HEPES buffer). (FIG. 7A) Quantification of wound closure using ImageJ border zone analysis plugin software. Scratches are scanned and imaged at t=0 and scratch size is quantified, then after 8 hours, cells are stopped, fixed and imaged again, then final scratch size is quantified. Migration index is calculated by subtracting the final area from the starting and dividing by the average of vehicle control samples, giving a value of 1.0 for vehicle control. mEV's contain endogenous bioactivity that is Cx43 Dependent, with over 8× healing potential when cells contain enhanced Cx43 levels. […] (FIG. 7G) Quantification of wound closure using ImageJ border zone analysis plugin software. Scratches are scanned and imaged at t=0 and scratch size is quantified, then after 8 hours, cells are stopped, fixed and imaged again, then final scratch size is quantified. […]

Chains of the proteins cited; added tags and fusions are not shown. Lines headed by an entry give the natural chain unless they say otherwise; changes in a name come on top.
UniProt P17302: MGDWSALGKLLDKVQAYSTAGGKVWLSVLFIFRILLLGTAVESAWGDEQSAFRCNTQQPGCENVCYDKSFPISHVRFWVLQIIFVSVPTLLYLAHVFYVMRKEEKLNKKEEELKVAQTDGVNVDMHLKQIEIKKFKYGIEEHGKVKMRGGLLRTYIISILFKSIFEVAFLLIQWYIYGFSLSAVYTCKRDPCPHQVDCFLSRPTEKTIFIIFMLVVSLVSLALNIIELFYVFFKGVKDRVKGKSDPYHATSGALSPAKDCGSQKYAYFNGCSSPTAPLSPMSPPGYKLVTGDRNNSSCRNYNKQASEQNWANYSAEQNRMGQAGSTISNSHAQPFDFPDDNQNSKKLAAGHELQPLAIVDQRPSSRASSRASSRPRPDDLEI

Substance | reduction in wound healing capabilities of mEV-treated cells with Gap27 (co-incubated with 100 uM Gap27) | reduction in wound healing abilities of mEV's with Apyrase (100 uM Apyrase in tandem with mEV's)
Gap27: a known Connexin channel blocker (TEKTIFIIFML; UniProt P17302 204-214, looked up, fragment) | more than 50% | –
Apyrase | – | more than 50%
